Measurements reported in PubChem BioAssay AID720505 (Drosophila RNAi Screening Center, 2013).
The deposit covers about 20,000 reagents; shown is a random part of those that have a named target and a result. Of all reagents, about 2,100 (10%) were called active. 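Raw plate signals without normalisation; calls rest on control-based scores that were not deposited; replicate 2 separates called from uncalled poorly.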 The numbers tell different reagents against one gene apart. A plus sign joins genes that one reagent is predicted to hit. The record does not give: the amount of reagent, the time to read-out.

Assay: 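Fly regulators or components of the CRAC channel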 (primary screen)
Cells: Drosophila S2R+ cells
Reagents: long dsRNA against Drosophila genes
Treatment: thapsigargin (2 µM) in calcium-free buffer to empty internal stores, then 2 mM calcium added back
Measured: 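Stores emptied by 2 µM thapsigargin without calcium, then 2 mM calcium re-added; fluo-4 fluorescence followed by FLIPR in 384-well plates, per-well averaged endpoint, raw; two screen passes, some wells retested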
Scale: calcium signal and retest calcium signal: higher = more calcium entry after store depletion
Hit rule: 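About 1500 genes called as lowering calcium entry, by varying amounts, judged against per-plate control wells with STIM1 as positive and Rho1 as negative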
Calls: active = called as lowering calcium entry; inactive = not called

target	dsRNA no.	calcium signal, replicate 1	calcium signal, replicate 2	retest calcium signal, replicate 1	retest calcium signal, replicate 2	activity call
Desi	1	106	97.6			inactive
Ddrgk1	1	162	294			inactive
Max	1	176	105			inactive
CG5989	1	105	85			inactive
dmrt99B	1	233	220			inactive
dmrt99B	2	115	82.2			inactive
CG6607	1	283	145			inactive
CG32371	1	91.9	229			inactive
SCaMC	1	112	85.3			inactive
SCaMC	2	118	82.9			inactive
CG31650	1	105	112	104	112	inactive
CG3513	1	136	114			inactive
CG13114	1	245	199			inactive
CG31157	1	153	69.5			inactive
Dbx	1	66.8	58.9			active
Dbx	2	55.9	114			inactive
Dbx	3	75.4	98.6			inactive
CG13671	1	87.1	72			inactive
robl	1	184	150			inactive
CG3663	1	190	114			inactive
CG3163	1	184	79.8			inactive
CG33230	1	128	163			inactive
CG33969	1	79.2	132			inactive
CG32069 + Blos2	1	86.3	75.2			inactive
mRpL24	1	93.7	146			inactive
DCTN1-p150	1	94.5	67.8			inactive
CG13409	1	132	157			inactive
CG43327 + CG43328	1	157	93.6			inactive
Cnx99A + Cnx14D	1	107	106			inactive
CG8135 + BBIP1	1					active
CG8135 + BBIP1	2	61.3	93.3			active
CG8892	1	72	185			inactive
ProtB	1	81.4	139			inactive
CG17264	1	97.7	224			inactive
mRpS11	1	191	214			inactive
CG13058	1	90.3	172			inactive
Zir	1	84.5	141			inactive
PolQ	1	144	73.4			inactive
msl-3	1	71.3	76.5			inactive
RluA-2	1	90.1	106			inactive
ckd	1	83.7	108			inactive
BomS2	1	122	87.2			inactive
CG6937	1	122	80.9			inactive
CG10035	1	178	158			inactive
LpR2	1	95.7	115			inactive
LpR2	2	172	124			inactive
BigH1	1	92.3	116			inactive
CG30154	1	62.4	117			active
mgl	1	80.2	82			inactive
mgl	2	130	121			inactive
mgl	3	110	86.2			inactive
mgl	4	117	99.4			inactive
CG17807	1	145	154			inactive
CG14374	1	120	202			inactive
CG5439	1	98.2	118			inactive
PPYR1	1	80.4	105			inactive
CG12698	1	105	130			inactive
CG8635	1	198	150			inactive
Osi1	1	99.5	159			inactive
Cyp6d4	1	154	222			inactive
CG5435	1	135	97.7			inactive
Mtap	1	214	130			inactive
CG15239	1	214	135			inactive
CG5550	1	140	116			inactive
tin	1	73.1	107			active
tin	2	102	98.8			inactive
tin	3	81.5	135			inactive
CG15449	1	183	86.4			inactive
Eaat2	1	90	117			inactive
Eaat2	2	148	157			inactive
Dad	1	178	180			inactive
smal	1	69.5	202	101	92.4	inactive
smal	2	178	85.6			inactive
smal	3	153	85.3			inactive
smal	4	58.5	171			active
smal	5	69.5	67.8			inactive
CG34224	1	111	127			inactive
Hmr	1	84	126			inactive
CG8701	1	213	129			inactive
Rpp30	1	72.9	151			inactive
CG4375	1	132	155			inactive
CG14642	1	112	98.1			inactive
CG7627	1	172	326			inactive
